From patent US20090297479A1 come the findings set out here.

Experiment [1] addresses T1, DC-HIL, mouse, endogenous on APC / dendritic cells (mouse) (UniProt Q99P91).
T1 sequence (looked up): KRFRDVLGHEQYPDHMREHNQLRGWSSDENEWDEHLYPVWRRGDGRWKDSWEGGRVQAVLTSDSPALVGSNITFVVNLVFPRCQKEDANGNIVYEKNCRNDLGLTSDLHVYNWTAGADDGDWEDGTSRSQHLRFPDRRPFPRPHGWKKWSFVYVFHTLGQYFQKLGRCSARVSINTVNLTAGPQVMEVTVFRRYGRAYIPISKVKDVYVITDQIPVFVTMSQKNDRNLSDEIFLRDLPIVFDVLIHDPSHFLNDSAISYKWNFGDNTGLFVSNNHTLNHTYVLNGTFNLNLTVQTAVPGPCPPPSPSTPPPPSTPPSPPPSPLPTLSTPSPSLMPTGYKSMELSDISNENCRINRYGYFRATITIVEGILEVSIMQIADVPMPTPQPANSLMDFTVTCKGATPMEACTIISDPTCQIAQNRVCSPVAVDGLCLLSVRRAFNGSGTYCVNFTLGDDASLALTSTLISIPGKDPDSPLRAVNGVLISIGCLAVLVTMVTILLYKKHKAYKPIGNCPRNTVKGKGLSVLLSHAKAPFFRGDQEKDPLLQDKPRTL
Put plainly: binding to dendritic cells (data not shown).

Experiment [2] addresses T2, DC-HIL-Fc (extracellular domain of mouse DC-HIL fused to the Fc portion of human IgG1) (mouse; human) (UniProt Q99P91).
T2 sequence (looked up): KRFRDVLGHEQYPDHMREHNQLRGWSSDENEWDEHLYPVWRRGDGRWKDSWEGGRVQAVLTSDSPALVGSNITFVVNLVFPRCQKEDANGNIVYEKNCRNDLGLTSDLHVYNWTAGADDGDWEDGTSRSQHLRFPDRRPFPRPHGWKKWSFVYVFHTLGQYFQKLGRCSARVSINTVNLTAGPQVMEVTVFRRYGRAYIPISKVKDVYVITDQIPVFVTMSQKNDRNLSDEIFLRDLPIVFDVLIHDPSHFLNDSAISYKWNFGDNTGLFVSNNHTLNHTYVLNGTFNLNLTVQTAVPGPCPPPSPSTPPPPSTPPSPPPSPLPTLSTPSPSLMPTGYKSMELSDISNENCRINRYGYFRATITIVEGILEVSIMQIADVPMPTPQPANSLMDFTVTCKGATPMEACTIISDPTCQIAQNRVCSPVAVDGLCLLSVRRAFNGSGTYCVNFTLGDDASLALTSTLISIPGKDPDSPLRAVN
The experiment is described as follows: competition: DC-HIL-Fc pretreated with SD4-Fc at varying concentrations, then FACS on activated CD4+ T-cells.

No constants are given. Whether binding was seen depends on the method and setting. Some entries that bind do so weakly or less than the wild type. Sequences can lack the tags named with a protein.

B1: SD4-Fc (extracellular domain of SD-4 fused to the Fc portion of human IgG1) (Fc fusion, UniProt O35988 24-145, looked up, not shown: a dimerising Fc or GST)
chain: ESIRETEVIDPQDLLEGRYFSGALPDDEDAGGSDDFELSGSGDLDDTEEPRPFPEVIEPLVPLDNHIPENAQPGIRVPSEPKELEENEVIPKRAPSDVGDDMSNKVSMSSTAQGSNIFERTE
Turning to B1, the binding entry in experiment [1] and in experiment [2] was “binds” in each case.
